PubChem BioAssay AID1508597, Cure First | 2020

Screen: 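Survival screen with siRNA in ovarian cancer cells derived from patients, with or without rucaparib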 (primary screen)
Cells: human ovarian carcinoma lines grown from tumours: OCI-P5x (papillary serous) and OCI-C5x (clear cell)
Reagents: siRNA pool against human genes, 1.25 pmol siRNA per well
Duration: 72 h or 96 h, depending on the cell culture
Conditions: rucaparib 20 µM (about IC30) or vehicle, present until read-out
Read-out: 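Luminescent ATP-based viability assay read 72 or 96 h after transfection, depending on culture, given as normalised percent viability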
Scale: viability, normalised: higher = more viable cells remaining
Rule for the call: 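Active when normalised viability falls below 80 percent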
Meaning of the calls: active = viability under 80%; inactive = viability 80% or more
Here is a random part of about 2,100 reagents tested. 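Calls flag viability under 80% in either arm, not effects specific to rucaparib; the reference for percent is not stated.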 Entries without a mark were called inactive. Some reagents were tested in more than one well and are listed for each. Reagent sequences are not shown. The record does not give: the 100% reference.

gene | rucaparib or vehicle | cell line | technical replicate | viability, normalised (%)
DHX30 | Rucaparib | OCI-C5x (clear cell) | 1 | 46.1 (active)
DHX30 | Rucaparib | OCI-C5x (clear cell) | 2 | 55.3 (active)
DHX30 | Rucaparib | OCI-C5x (clear cell) | 3 | 26 (active)
DHX30 | Rucaparib | OCI-P5x (serous) | 1 | 55.7 (active)
DHX30 | Rucaparib | OCI-P5x (serous) | 2 | 57.6 (active)
DHX30 | Rucaparib | OCI-P5x (serous) | 3 | 59.4 (active)
DHX30 | Vehicle | OCI-C5x (clear cell) | 1 | 57.8 (active)
DHX30 | Vehicle | OCI-C5x (clear cell) | 2 | 52.1 (active)
DHX30 | Vehicle | OCI-C5x (clear cell) | 3 | 46.7 (active)
DHX30 | Vehicle | OCI-P5x (serous) | 1 | 59 (active)
DHX30 | Vehicle | OCI-P5x (serous) | 2 | 62.8 (active)
DHX30 | Vehicle | OCI-P5x (serous) | 3 | 67.6 (active)
POLR3K | Rucaparib | OCI-C5x (clear cell) | 1 | 38.9 (active)
POLR3K | Rucaparib | OCI-C5x (clear cell) | 2 | 45.9 (active)
POLR3K | Rucaparib | OCI-C5x (clear cell) | 3 | 40 (active)
POLR3K | Rucaparib | OCI-P5x (serous) | 1 | 63.7 (active)
POLR3K | Rucaparib | OCI-P5x (serous) | 2 | 52.3 (active)
POLR3K | Rucaparib | OCI-P5x (serous) | 3 | 59.8 (active)
POLR3K | Vehicle | OCI-C5x (clear cell) | 1 | 37.8 (active)
POLR3K | Vehicle | OCI-C5x (clear cell) | 2 | 52.2 (active)
POLR3K | Vehicle | OCI-C5x (clear cell) | 3 | 29 (active)
POLR3K | Vehicle | OCI-P5x (serous) | 1 | 71 (active)
POLR3K | Vehicle | OCI-P5x (serous) | 2 | 69.4 (active)
POLR3K | Vehicle | OCI-P5x (serous) | 3 | 66.9 (active)
MUSK | Rucaparib | OCI-C5x (clear cell) | 1 | 54.1 (active)
MUSK | Rucaparib | OCI-C5x (clear cell) | 2 | 61.1 (active)
MUSK | Rucaparib | OCI-C5x (clear cell) | 3 | 51.2 (active)
MUSK | Rucaparib | OCI-P5x (serous) | 1 | 97.2
MUSK | Rucaparib | OCI-P5x (serous) | 2 | 86.5
MUSK | Rucaparib | OCI-P5x (serous) | 3 | 92.8
MUSK | Vehicle | OCI-C5x (clear cell) | 1 | 68.1 (active)
MUSK | Vehicle | OCI-C5x (clear cell) | 2 | 69.9 (active)
MUSK | Vehicle | OCI-C5x (clear cell) | 3 | 57.4 (active)
MUSK | Vehicle | OCI-P5x (serous) | 1 | 84.7
MUSK | Vehicle | OCI-P5x (serous) | 2 | 78.5 (active)
MUSK | Vehicle | OCI-P5x (serous) | 3 | 85

7 entries from above in another layout.
POLR3K, rucaparib or vehicle Rucaparib, cell line OCI-P5x (serous), technical replicate 1
- viability, normalised (%): 63.7 (active)

POLR3K, rucaparib or vehicle Rucaparib, cell line OCI-P5x (serous), technical replicate 2
- viability, normalised (%): 52.3 (active)

POLR3K, rucaparib or vehicle Rucaparib, cell line OCI-P5x (serous), technical replicate 3
- viability, normalised (%): 59.8 (active)

POLR3K, rucaparib or vehicle Vehicle, cell line OCI-C5x (clear cell), technical replicate 1
- viability, normalised (%): 37.8 (active)

POLR3K, rucaparib or vehicle Vehicle, cell line OCI-C5x (clear cell), technical replicate 2
- viability, normalised (%): 52.2 (active)

POLR3K, rucaparib or vehicle Vehicle, cell line OCI-C5x (clear cell), technical replicate 3
- viability, normalised (%): 29 (active)

POLR3K, rucaparib or vehicle Vehicle, cell line OCI-P5x (serous), technical replicate 1
- viability, normalised (%): 71 (active)

Continued:
gene | rucaparib or vehicle | cell line | technical replicate | viability, normalised (%)
DAP3 | Rucaparib | OCI-C5x (clear cell) | 1 | 51.8 (active)
DAP3 | Rucaparib | OCI-C5x (clear cell) | 2 | 46.3 (active)
DAP3 | Rucaparib | OCI-C5x (clear cell) | 3 | 49.6 (active)
DAP3 | Rucaparib | OCI-P5x (serous) | 1 | 49.6 (active)
DAP3 | Rucaparib | OCI-P5x (serous) | 2 | 59.1 (active)
DAP3 | Rucaparib | OCI-P5x (serous) | 3 | 65.1 (active)
DAP3 | Vehicle | OCI-C5x (clear cell) | 1 | 53.9 (active)
DAP3 | Vehicle | OCI-C5x (clear cell) | 2 | 53.2 (active)
DAP3 | Vehicle | OCI-C5x (clear cell) | 3 | 40.5 (active)
DAP3 | Vehicle | OCI-P5x (serous) | 1 | 60.4 (active)
DAP3 | Vehicle | OCI-P5x (serous) | 2 | 61.6 (active)
DAP3 | Vehicle | OCI-P5x (serous) | 3 | 71.7 (active)
PRKCI | Rucaparib | OCI-C5x (clear cell) | 1 | 45.2 (active)
PRKCI | Rucaparib | OCI-C5x (clear cell) | 1 | 35.1 (active)
PRKCI | Rucaparib | OCI-C5x (clear cell) | 2 | 47.3 (active)
PRKCI | Rucaparib | OCI-C5x (clear cell) | 2 | 53.4 (active)
PRKCI | Rucaparib | OCI-C5x (clear cell) | 3 | 53.7 (active)
PRKCI | Rucaparib | OCI-C5x (clear cell) | 3 | 48.8 (active)
PRKCI | Rucaparib | OCI-P5x (serous) | 1 | 59.5 (active)
PRKCI | Rucaparib | OCI-P5x (serous) | 1 | 108
PRKCI | Rucaparib | OCI-P5x (serous) | 2 | 65.5 (active)
PRKCI | Rucaparib | OCI-P5x (serous) | 2 | 94
PRKCI | Rucaparib | OCI-P5x (serous) | 3 | 60.1 (active)
PRKCI | Rucaparib | OCI-P5x (serous) | 3 | 90.9
PRKCI | Vehicle | OCI-C5x (clear cell) | 1 | 37.9 (active)
PRKCI | Vehicle | OCI-C5x (clear cell) | 1 | 55.6 (active)
PRKCI | Vehicle | OCI-C5x (clear cell) | 2 | 51.3 (active)
PRKCI | Vehicle | OCI-C5x (clear cell) | 2 | 49.5 (active)
PRKCI | Vehicle | OCI-C5x (clear cell) | 3 | 43.1 (active)
PRKCI | Vehicle | OCI-C5x (clear cell) | 3 | 41.2 (active)
PRKCI | Vehicle | OCI-P5x (serous) | 1 | 62.9 (active)
PRKCI | Vehicle | OCI-P5x (serous) | 1 | 54.4 (active)
PRKCI | Vehicle | OCI-P5x (serous) | 2 | 71.2 (active)
PRKCI | Vehicle | OCI-P5x (serous) | 2 | 55.1 (active)
PRKCI | Vehicle | OCI-P5x (serous) | 3 | 50.6 (active)
PRKCI | Vehicle | OCI-P5x (serous) | 3 | 55.2 (active)
ERN2 | Rucaparib | OCI-C5x (clear cell) | 1 | 85
ERN2 | Rucaparib | OCI-C5x (clear cell) | 2 | 63.4 (active)
ERN2 | Rucaparib | OCI-C5x (clear cell) | 3 | 53.8 (active)
ERN2 | Rucaparib | OCI-P5x (serous) | 1 | 92.3
ERN2 | Rucaparib | OCI-P5x (serous) | 2 | 80.1
ERN2 | Rucaparib | OCI-P5x (serous) | 3 | 74.6 (active)
ERN2 | Vehicle | OCI-C5x (clear cell) | 1 | 89.4
ERN2 | Vehicle | OCI-C5x (clear cell) | 2 | 62.8 (active)
ERN2 | Vehicle | OCI-C5x (clear cell) | 3 | 64.3 (active)
ERN2 | Vehicle | OCI-P5x (serous) | 1 | 80.6
ERN2 | Vehicle | OCI-P5x (serous) | 2 | 80.1
ERN2 | Vehicle | OCI-P5x (serous) | 3 | 75.5 (active)
